Measurements taken from patent US7674907B2, “Furanopyridine derivatives and methods of use” (Amgen Inc., priority 2004, dated 2010).
Some results were stated once for a whole list of compounds, not compound by compound.

Protein sequences, listed by entry. Tags and fused reporters are not part of them. Residues count along the entry.
UniProt P06239, 225-509: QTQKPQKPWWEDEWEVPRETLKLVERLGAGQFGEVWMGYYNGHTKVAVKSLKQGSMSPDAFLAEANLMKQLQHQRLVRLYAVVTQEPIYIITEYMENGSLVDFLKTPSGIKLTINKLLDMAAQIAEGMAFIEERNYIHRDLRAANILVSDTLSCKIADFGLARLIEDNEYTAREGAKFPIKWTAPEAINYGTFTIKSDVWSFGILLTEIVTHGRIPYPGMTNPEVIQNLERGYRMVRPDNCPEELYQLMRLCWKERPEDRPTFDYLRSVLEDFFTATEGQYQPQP
UniProt Q07912, 117-489: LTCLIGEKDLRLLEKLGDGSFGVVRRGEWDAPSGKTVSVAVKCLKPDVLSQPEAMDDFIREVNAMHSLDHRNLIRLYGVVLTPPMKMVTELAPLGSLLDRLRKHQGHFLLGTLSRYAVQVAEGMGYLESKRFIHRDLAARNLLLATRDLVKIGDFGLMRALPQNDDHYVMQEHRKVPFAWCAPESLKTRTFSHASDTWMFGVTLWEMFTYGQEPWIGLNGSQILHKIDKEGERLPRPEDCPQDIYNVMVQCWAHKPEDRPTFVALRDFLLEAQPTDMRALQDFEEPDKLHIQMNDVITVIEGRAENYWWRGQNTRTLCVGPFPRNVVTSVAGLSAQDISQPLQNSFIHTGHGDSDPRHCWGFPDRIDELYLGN

What was measured:
Lck kinase enzyme = target: T1, Lck kinase enzyme (Homo sapiens, UniProt P06239); test: LCK-Homogeneous Time Resolved Fluorescent (HTRF) kinase assay; assay type: biochemical; conditions: read-out: average IC50 value in the human HTRF assay, inhibition of the Lck kinase enzyme
T1 construct: LCK KD GST (225-509); GST

ACK1 = target: T2, ACK1 (Homo sapiens, UniProt Q07912); test: ACK1 enzymatic assay (ELISA, PGT substrate); assay type: biochemical; conditions: read-out: average IC50 value in the ACK1 kinase enzymatic assay
T2 construct: a fusion of an N-terminal (His)6 Tag with amino acids 117 to 489 of ACK1; (His)6 (N); made in house; host or cells: baculovirus infected Hi-5 insect cells

With CN1CCCC1CCNc1ccnc2oc(-c3ccc(OCCN4CCCCC4)cc3)c(-c3ccccc3)c12 (centres unmarked) [Example 53, N-(2-(1-methyl-2-pyrrolidinyl)ethyl)-3-phenyl-2-(4-((2-(1-piperidinyl)ethyl)oxy)phenyl)furo[2,3-b]pyridin-4-amine] the IC50 (Lck kinase enzyme) was no more than 5 µM and the IC50 (ACK1) was no more than 5 µM.
